In paper doi:10.1101/2023.10.18.562906:
These are yes or no findings as the source states them, for the method shown. Binding seen in cells or lysates may run through a third protein. Some entries that bind do so weakly or less than the wild type.

By UniProt entry, the sequences of proteins in these tests, tags left out. Where a name states a change or a piece, a line headed by the entry shows the natural chain unless it says otherwise.
UniProt Q8IWT3: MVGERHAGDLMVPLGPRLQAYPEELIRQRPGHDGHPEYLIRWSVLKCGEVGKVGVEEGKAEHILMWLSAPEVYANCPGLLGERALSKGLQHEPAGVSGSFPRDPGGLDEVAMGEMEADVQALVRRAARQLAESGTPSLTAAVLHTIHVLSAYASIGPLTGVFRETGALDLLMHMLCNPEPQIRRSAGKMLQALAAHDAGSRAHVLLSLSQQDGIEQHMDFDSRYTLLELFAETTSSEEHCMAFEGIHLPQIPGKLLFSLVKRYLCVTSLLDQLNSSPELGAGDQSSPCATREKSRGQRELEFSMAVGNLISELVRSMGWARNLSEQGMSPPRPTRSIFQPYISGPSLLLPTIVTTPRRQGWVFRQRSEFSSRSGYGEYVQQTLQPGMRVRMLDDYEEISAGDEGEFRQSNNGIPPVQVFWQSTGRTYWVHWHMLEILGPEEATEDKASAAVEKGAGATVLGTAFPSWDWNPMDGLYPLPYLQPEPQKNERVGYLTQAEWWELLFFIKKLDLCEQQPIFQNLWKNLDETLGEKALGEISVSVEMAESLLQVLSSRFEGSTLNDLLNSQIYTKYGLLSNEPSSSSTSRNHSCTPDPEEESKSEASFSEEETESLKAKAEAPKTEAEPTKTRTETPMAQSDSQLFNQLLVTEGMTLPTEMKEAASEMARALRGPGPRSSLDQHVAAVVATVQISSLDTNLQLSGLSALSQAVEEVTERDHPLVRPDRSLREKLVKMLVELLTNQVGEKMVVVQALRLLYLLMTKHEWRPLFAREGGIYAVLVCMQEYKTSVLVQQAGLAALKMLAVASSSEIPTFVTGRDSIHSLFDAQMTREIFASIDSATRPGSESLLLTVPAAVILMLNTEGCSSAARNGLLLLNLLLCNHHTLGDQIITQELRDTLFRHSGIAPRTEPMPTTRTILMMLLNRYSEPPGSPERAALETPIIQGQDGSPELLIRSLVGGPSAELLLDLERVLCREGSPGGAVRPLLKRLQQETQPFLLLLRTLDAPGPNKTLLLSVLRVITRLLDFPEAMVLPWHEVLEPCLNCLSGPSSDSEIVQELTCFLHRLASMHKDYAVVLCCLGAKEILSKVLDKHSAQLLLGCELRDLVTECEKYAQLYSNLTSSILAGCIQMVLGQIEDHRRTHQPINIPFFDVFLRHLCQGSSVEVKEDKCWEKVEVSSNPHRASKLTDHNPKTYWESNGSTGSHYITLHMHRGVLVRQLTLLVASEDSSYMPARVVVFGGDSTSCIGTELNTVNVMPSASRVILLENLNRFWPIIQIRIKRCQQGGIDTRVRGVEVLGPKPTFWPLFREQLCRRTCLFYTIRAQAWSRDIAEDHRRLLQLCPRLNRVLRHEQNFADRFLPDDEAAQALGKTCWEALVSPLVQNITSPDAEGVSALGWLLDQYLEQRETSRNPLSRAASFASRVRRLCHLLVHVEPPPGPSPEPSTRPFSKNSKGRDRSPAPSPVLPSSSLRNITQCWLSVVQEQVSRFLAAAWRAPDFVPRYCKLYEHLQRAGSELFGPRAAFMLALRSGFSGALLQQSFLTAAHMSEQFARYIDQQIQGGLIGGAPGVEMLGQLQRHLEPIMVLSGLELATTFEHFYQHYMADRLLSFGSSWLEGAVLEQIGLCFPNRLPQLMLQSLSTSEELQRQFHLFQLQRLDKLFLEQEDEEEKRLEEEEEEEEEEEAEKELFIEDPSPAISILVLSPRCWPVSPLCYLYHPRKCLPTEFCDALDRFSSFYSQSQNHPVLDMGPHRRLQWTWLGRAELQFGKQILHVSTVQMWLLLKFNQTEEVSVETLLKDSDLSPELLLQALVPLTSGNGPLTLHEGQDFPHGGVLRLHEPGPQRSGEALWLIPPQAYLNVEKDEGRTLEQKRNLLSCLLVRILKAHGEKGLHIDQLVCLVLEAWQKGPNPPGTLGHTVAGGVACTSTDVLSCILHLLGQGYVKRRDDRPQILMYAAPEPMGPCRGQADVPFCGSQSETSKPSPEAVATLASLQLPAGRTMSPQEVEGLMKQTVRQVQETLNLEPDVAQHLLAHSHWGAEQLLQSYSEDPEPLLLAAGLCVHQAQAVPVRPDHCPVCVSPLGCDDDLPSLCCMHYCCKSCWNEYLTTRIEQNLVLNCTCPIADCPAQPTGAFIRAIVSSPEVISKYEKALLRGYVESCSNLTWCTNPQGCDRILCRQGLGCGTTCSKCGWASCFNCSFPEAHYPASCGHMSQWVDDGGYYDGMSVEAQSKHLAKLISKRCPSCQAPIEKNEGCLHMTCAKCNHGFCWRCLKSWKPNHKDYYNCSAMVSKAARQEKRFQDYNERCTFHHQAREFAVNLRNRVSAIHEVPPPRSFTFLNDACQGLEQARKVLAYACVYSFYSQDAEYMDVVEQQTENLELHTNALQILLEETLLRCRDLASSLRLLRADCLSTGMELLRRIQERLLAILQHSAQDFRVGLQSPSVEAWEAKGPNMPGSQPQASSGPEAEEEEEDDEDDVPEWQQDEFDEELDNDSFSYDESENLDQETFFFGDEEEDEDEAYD
UniProt P07947: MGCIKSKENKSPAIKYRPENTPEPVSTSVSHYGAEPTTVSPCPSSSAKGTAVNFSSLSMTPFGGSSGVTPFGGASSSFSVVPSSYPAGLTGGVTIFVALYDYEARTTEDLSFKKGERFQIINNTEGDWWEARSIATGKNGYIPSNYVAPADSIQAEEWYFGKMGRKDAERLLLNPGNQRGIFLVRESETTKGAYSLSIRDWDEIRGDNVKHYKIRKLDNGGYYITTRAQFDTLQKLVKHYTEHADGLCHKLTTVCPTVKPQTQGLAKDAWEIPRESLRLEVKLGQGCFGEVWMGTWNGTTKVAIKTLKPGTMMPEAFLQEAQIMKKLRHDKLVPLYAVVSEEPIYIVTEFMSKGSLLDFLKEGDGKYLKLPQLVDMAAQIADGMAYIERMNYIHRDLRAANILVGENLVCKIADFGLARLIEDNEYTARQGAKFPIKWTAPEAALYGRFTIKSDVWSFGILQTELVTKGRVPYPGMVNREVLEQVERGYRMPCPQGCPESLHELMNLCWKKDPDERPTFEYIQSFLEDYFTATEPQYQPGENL

How the values were obtained:
[1] = target: HA-Cul9 (UniProt Q8IWT3); experiment: co-IP
[2] = target: endogenous Cul9 (gastric cancer cells) (human (endogenous in SGC7901)) (UniProt Q8IWT3); experiment: proximity ligation
[3] = target: endogenous Cul9 (gastric cancer cells) (human (endogenous in SGC7901)) (UniProt Q8IWT3); experiment: co-IP
[4] = target: Cul9 (HEK293T, immunoprecipitated with anti-Cul9) (UniProt Q8IWT3); experiment: co-IP
[5] = target: Cul9-Y1505F (UniProt Q8IWT3); experiment: co-IP
[6] = target: Cul9-K1657R mutant (UniProt Q8IWT3); experiment: co-IP

Substance: Flag-Yes1 (from UniProt P07947 1-543) (enzyme)
- binding [1]: binds

Substance: endogenous Yes1 (gastric cancer cells) (from UniProt P07947 1-543) (enzyme)
- binding [2]: binds
- binding [3]: binds

Substance: p62 (HEK293T) (from UniProt Q13501 1-440)
- binding [4]: binds
- binding [5]: no binding

Substance: p62 (gastric cancer cells) (from UniProt Q13501 1-440)
- binding [3]: binds
- binding [6]: no binding
